Data as given in PubChem BioAssay AID652259 (Drosophila RNAi Screening Center, 2013).

Assay: 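Identify new Wingless signalling regulators in fly cells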 (primary screen)
Cell system: Drosophila clone 8 imaginal disc epithelial cells
Reagents: long dsRNA against Drosophila genes
Treatment: pathway stimulated by co-transfected Wingless expression plasmid
Read-out: 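Dual luciferase reads per well after Wingless plasmid stimulation: reporter firefly light and Renilla control light; activity is firefly divided by Renilla, a ratio not deposited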
Reading the numbers: firefly reporter light: higher = more Wg reporter light, before normalisation; Renilla control light: higher = more transfected or surviving cells
Rule for the call: 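Strong candidates differ from their plate mean by at least two out of four per-plate statistical tests; weak candidates meet just one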
Meaning of the calls: active = candidate regulator (raises or lowers reporter); inactive = not a candidate
In all, the deposit lists about 22,000 reagents; below is a random part of those that have a named target and a result. Of all reagents, 233 (1.1%) are marked active. 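Light values are raw, unnormalised plate reads; the ratio scores behind the reporter calls were not deposited.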 Not given: the amount of reagent, the time to read-out, the dose of the treatment.

CG32639 [SID104198764] scored firefly reporter light, replicate 1 = 3489; Renilla control light, replicate 1 = 379; inactive. Against CG5107 [SID104195508], the values are firefly reporter light, replicate 1 = 2163; firefly reporter light, replicate 2 = 4921; Renilla control light, replicate 1 = 736; Renilla control light, replicate 2 = 1740; inactive. For InR [SID104196509], the values are firefly reporter light, replicate 1 = 39970; Renilla control light, replicate 1 = 8432; inactive. Against geminin [SID104184776], the entry reads firefly reporter light, replicate 1 = 2518; firefly reporter light, replicate 2 = 3824; Renilla control light, replicate 1 = 429; Renilla control light, replicate 2 = 1168; inactive. For Dera [SID104186999], the values are firefly reporter light, replicate 1 = 15324; Renilla control light, replicate 1 = 6123; inactive. Depletion of Dera [SID104201115] gave: firefly reporter light, replicate 1 = 7.22e5; firefly reporter light, replicate 2 = 7.39e5; Renilla control light, replicate 1 = 4.42e5; Renilla control light, replicate 2 = 3.04e5; inactive.

After knock-down of CG31189 [SID104195990] the results were firefly reporter light, replicate 1 = 14448; Renilla control light, replicate 1 = 3288; inactive. Silencing of CtBP [SID104196409] gave: firefly reporter light, replicate 1 = 7171; Renilla control light, replicate 1 = 2759; inactive. With knock-down of Sgf29 [SID104183868] the results were firefly reporter light, replicate 1 = 8050; Renilla control light, replicate 1 = 2343; inactive. With knock-down of Decay [SID104196722], the screen gave firefly reporter light, replicate 1 = 19132; Renilla control light, replicate 1 = 5176; inactive.

3 entries from above, reformatted:
gene,PubChem SID,"firefly reporter light, replicate 1","firefly reporter light, replicate 2","Renilla control light, replicate 1","Renilla control light, replicate 2",outcome
CG31189,SID104195990,14448,,3288,,inactive
CtBP,SID104196409,7171,,2759,,inactive
Sgf29,SID104183868,8050,,2343,,inactive

Further records:
With knock-down of lncRNA:roX1 [SID104201515], the record shows firefly reporter light, replicate 1 = 4.55e5; firefly reporter light, replicate 2 = 4.85e5; Renilla control light, replicate 1 = 1.96e5; Renilla control light, replicate 2 = 2.37e5; inactive. With knock-down of CG3184 [SID104198081] the results were firefly reporter light, replicate 1 = 2289; firefly reporter light, replicate 2 = 10556; Renilla control light, replicate 1 = 688; Renilla control light, replicate 2 = 2037; inactive. CG30486 [SID104186472] scored firefly reporter light, replicate 1 = 8091; Renilla control light, replicate 1 = 2452; inactive. Depletion of Clamp [SID104183510] gave: firefly reporter light, replicate 1 = 16688; Renilla control light, replicate 1 = 5609; inactive. Clamp [SID104201363] showed firefly reporter light, replicate 1 = 9.20e5; firefly reporter light, replicate 2 = 8.46e5; Renilla control light, replicate 1 = 3.44e5; Renilla control light, replicate 2 = 2.31e5; inactive. With knock-down of CG4653 [SID104199701], the screen gave firefly reporter light, replicate 1 = 3739; firefly reporter light, replicate 2 = 9152; Renilla control light, replicate 1 = 1258; Renilla control light, replicate 2 = 2832; inactive.

With knock-down of CG4653 [SID104202216] the results were firefly reporter light, replicate 1 = 7.32e5; firefly reporter light, replicate 2 = 8.33e5; Renilla control light, replicate 1 = 3.40e5; Renilla control light, replicate 2 = 4.59e5; inactive. For Trmt61 [SID104194680] the deposit lists firefly reporter light, replicate 1 = 17156; Renilla control light, replicate 1 = 14707; inactive. Against Ugt302C1 [SID104195145], the entry reads firefly reporter light, replicate 1 = 6506; Renilla control light, replicate 1 = 2256; inactive. Clbn [SID104194196] gave firefly reporter light, replicate 1 = 19226; Renilla control light, replicate 1 = 14256; inactive. Against Cyp28a5 [SID104183089], the values are firefly reporter light, replicate 1 = 13846; Renilla control light, replicate 1 = 2489; inactive. PIG-Wa [SID104180520] gave firefly reporter light, replicate 1 = 3609; firefly reporter light, replicate 2 = 4733; Renilla control light, replicate 1 = 1104; Renilla control light, replicate 2 = 2204; inactive.

MESR4 [SID104186693] scored firefly reporter light, replicate 1 = 9236; Renilla control light, replicate 1 = 1354; inactive. Silencing of CG8833 [SID104190842] gave: firefly reporter light, replicate 1 = 4385; Renilla control light, replicate 1 = 1563; inactive. With knock-down of CG43349 [SID104179831], the screen gave firefly reporter light, replicate 1 = 24244; firefly reporter light, replicate 2 = 7.91e5; Renilla control light, replicate 1 = 10984; Renilla control light, replicate 2 = 3.10e5; inactive. Silencing of cac [SID104199535] gave: firefly reporter light, replicate 1 = 19089; Renilla control light, replicate 1 = 9360; inactive. cac [SID104200146] gave firefly reporter light, replicate 1 = 1673; firefly reporter light, replicate 2 = 6416; Renilla control light, replicate 1 = 864; Renilla control light, replicate 2 = 1888; inactive. Knock-down of CG9368 [SID104190859] gave: firefly reporter light, replicate 1 = 6406; Renilla control light, replicate 1 = 2135; inactive.

ntc [SID104187958] showed firefly reporter light, replicate 1 = 5504; Renilla control light, replicate 1 = 2438; inactive. For Hydr1 [SID104186855] the deposit lists firefly reporter light, replicate 1 = 3427; Renilla control light, replicate 1 = 729; inactive. After knock-down of l(3)07882 [SID104195674], the screen gave firefly reporter light, replicate 1 = 3104; firefly reporter light, replicate 2 = 6919; Renilla control light, replicate 1 = 1302; Renilla control light, replicate 2 = 2512; inactive. For CG5386 [SID104195580], the entry reads firefly reporter light, replicate 1 = 36179; Renilla control light, replicate 1 = 5895; inactive.
